{"source": "PubChem BioAssay AID493014", "about": "(National Center for Advancing Translational Sciences (NCATS), 2011)", "note": "About 170 (0.05%) of roughly 340,000 compounds were called active. This list was built around the results that the source calls inconclusive (neither active nor inactive); the mix of calls is not that of the screen. Calls come from the whole dose curve; as a rule, active = well fitted inhibition curve with a large enough effect in the signal ratio, with a control signal flat (not every such curve was filed as active); inconclusive = small, poorly fitted or top-dose-only effect, or effect the other way, or a change in a side signal; inactive = flat fitted curve, though single readings scatter; the % refers to the signal ratio. Potencies of inconclusive entries are doubtful fits and often do not repeat. Potency is the fitted concentration of half-maximal effect.", "data": [{"experiment": "qHTS Assay to Find Inhibitors of Chronic Active B-Cell Receptor Signaling;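 for activity change, negative = inhibition: plate controls were basal doxycycline-induced cells for no effect and cells given 10 µM MG132 for full effect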", "details": "ABC-DLBCL IkBa-CBG/CBR reporter, luminescence ratio (green luciferase fused to IkBa over red control in TMD8 lymphoma cells), 4 h; activity change, negative = inhibition: at 46.1 µM (top of the series)", "procedure,_shortened": "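Compounds up to 46 uM were incubated four hours with TMD8 cells whose green CBG68 luciferase is fused to IkappaBalpha; red CBR luminescence normalised the signal, and concentration-effect curves were fitted to fusion, red and ratio data.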", "values": [{"smiles": "O=S(=O)(c1ccc2c(c1)OCCO2)N1CCC(c2nc3ccc(Cl)cc3[nH]2)CC1", "activity change, negative = inhibition": "inconclusive: 0.836%"}, {"smiles": "CC(=O)N/C(=C/c1ccc2c(c1)OCO2)C(=O)O", "Potency": "inconclusive: 1.26 µM [falling, partial curve]"}, {"smiles": "COCCCN=C1NN=C(c2cc(C)n(-c3ccccc3F)c2C)CS1", "activity change, negative = inhibition": "inactive"}, {"smiles": "O=C(CSc1nc2ccccc2o1)N1CCN(C(=O)c2ccco2)CC1", "activity change, negative = inhibition": "inconclusive: -1.27%"}, {"smiles": "O=[N+]([O-])c1cncc([N+](=O)[O-])c1Nc1cccc(O)c1", "activity change, negative = inhibition": "inconclusive: -4.89%"}, {"smiles": "COC(=O)[C@H](Cc1ccccc1)NC(=O)NCCc1ccc(F)cc1", "activity change, negative = inhibition": "inconclusive: 12.1%"}, {"smiles": "O=C(CN1CCN(Cc2ccccc2)CC1)Nc1ccc2c(c1)CCC2", "activity change, negative = inhibition": "inconclusive: -2.95%"}, {"smiles": "COc1ccccc1OCCn1cc(/C=C(\\C#N)C(=O)NCc2ccco2)c2ccccc21", "activity change, negative = inhibition": "inactive"}, {"smiles": "Cc1ccn2c(=O)nc(SCC(=O)N3N=C(c4cccs4)CC3c3ccc(F)cc3)nc2c1", "note": "(stereo unspecified)", "activity change, negative = inhibition": "inconclusive: -16.3%"}, {"smiles": "Cc1cc(C)c(N2C(=O)CCCC2=O)c(Cl)c1", "activity change, negative = inhibition": "inactive"}, {"smiles": "O=C(Cc1ccccc1)Nc1ccc(CN2CCOCC2)cc1", "activity change, negative = inhibition": "inconclusive: 3.97%"}, {"smiles": "O=c1[nH]c(Nc2nc3ccccc3o2)nc2c1CCCC2", "activity change, negative = inhibition": "inactive"}, {"smiles": "Cc1cccc(/C(N)=N/OC(=O)CCCc2ccccc2)c1", "activity change, negative = inhibition": "inconclusive: 8.96%"}, {"smiles": "CC1(C)Oc2ccc3ccc(=O)oc3c2/C(=C/NNC(N)=O)C1=O", "Potency": "inconclusive: 31.6 µM [falling, single point]"}, {"smiles": "Cc1ccc(C(=O)CSc2nnc(COc3cc(C)cc(C)c3)o2)cc1", "activity change, negative = inhibition": "inconclusive: 8.46%"}, {"smiles": "O=C(/C=C\\c1ccco1)Nc1nc(-c2ccc3ccccc3c2)cs1", "activity change, negative = inhibition": "inconclusive: 7.44%"}, {"smiles": "Cn1c(SCc2ccccc2Cl)nc2c1c(=O)[nH]c(=O)n2C", "activity change, negative = inhibition": "inactive"}, {"smiles": "O=C(CCCSc1nc2ccccc2c(=O)[nH]1)c1ccccc1", "activity change, negative = inhibition": "inconclusive: 5.7%"}, {"smiles": "O=C(COc1ccc(Br)cc1Cl)NC(=O)Nc1ccc2c(c1)OCCO2", "activity change, negative = inhibition": "inactive"}, {"smiles": "CCCCn1c(N)c(N(CCC(C)C)C(=O)CSc2nnc(Nc3ccccc3)s2)c(=O)[nH]c1=O", "activity change, negative = inhibition": "inconclusive: -14.6%"}, {"smiles": "COc1cccc(CN(C)CC(O)COC(c2ccccc2)c2ccccc2C)c1", "note": "(stereo unspecified)", "activity change, negative = inhibition": "inconclusive: -15.1%"}, {"smiles": "Cn1c(=O)c2c(ncn2CC(=O)OCC(=O)Nc2sccc2C(N)=O)n(C)c1=O", "activity change, negative = inhibition": "inconclusive: 0.52%"}, {"smiles": "O=C(CCN1CCN(c2ccccc2)CC1)N/N=C/c1ccccc1O", "activity change, negative = inhibition": "inconclusive: 16.6%"}, {"smiles": "COc1cc(Nc2c3ccccc3nc3ccccc23)cc(OC)c1OC", "Potency": "inconclusive: 14.1 µM [falling, single point]"}, {"smiles": "CCN(CC)C(=O)c1sc2c(c1C)c(=O)n(-c1ccccc1)c(=O)n2Cc1cc(=O)n2ccccc2n1", "activity change, negative = inhibition": "inconclusive: -22.3%"}, {"smiles": "Cc1ccc(CN(C(=O)COc2cccc(C)c2C)C2CCS(=O)(=O)C2)o1", "note": "(stereo unspecified)", "Potency": "inconclusive: 11.2 µM [falling, partial curve, poor fit]"}, {"smiles": "COc1ccc(C2c3[nH]c4ccccc4c3CCN2Cc2cccn2-c2ncccn2)cc1C", "note": "(stereo unspecified)", "activity change, negative = inhibition": "inconclusive: -15%"}, {"smiles": "O=C(NCc1ccc2c3c(cccc13)C(=O)N2)c1cccs1", "activity change, negative = inhibition": "inconclusive: 199%"}, {"smiles": "COC(=O)c1ccc2nc(Nc3nc4ccc(F)cc4s3)sc2c1", "activity change, negative = inhibition": "inconclusive: 35.2%"}, {"smiles": "COc1ccc(C2NC(c3ccc(OC)cc3)C([N+](=O)[O-])C(C)(C)C2[N+](=O)[O-])cc1", "note": "(stereo unspecified)", "activity change, negative = inhibition": "inconclusive: 10.4%"}, {"smiles": "CC(C)Cn1nc(NC(=O)c2ccco2)c2cc3ccccc3nc21", "Potency": "inconclusive: 15.8 µM [rising, partial curve, poor fit]"}, {"smiles": "CC(C)c1ccc(NC(=O)C(c2ccccc2)N2CC(=O)Nc3ccccc32)cc1", "note": "(stereo unspecified)", "activity change, negative = inhibition": "inconclusive: 9.31%"}, {"smiles": "CCc1cccc(C)c1NC(=O)CSc1nc2ccccc2n1CC(=O)N(C)C", "activity change, negative = inhibition": "inactive"}, {"smiles": "CN1CCN(S(=O)(=O)c2cc([N+](=O)[O-])ccc2Cl)CC1", "activity change, negative = inhibition": "inconclusive: 9.04%"}, {"smiles": "C[C@@H]1C=CC(=O)O[C@@H]1c1ccc(Cl)cc1", "Potency": "inconclusive: 10 µM [falling, partial curve]"}, {"smiles": "CC(NCC(=O)Nc1cc(S(=O)(=O)N2CCOCC2)ccc1Cl)c1ccc(Cl)cc1Cl", "note": "(stereo unspecified)", "activity change, negative = inhibition": "inconclusive: 6.04%"}, {"smiles": "S=c1[nH]c2cc(-c3ccccc3)ccc2o1", "activity change, negative = inhibition": "inconclusive: -4.05%"}, {"smiles": "Cc1ccccc1Nc1nnc(SCC(=O)c2c(N)n(C3CC3)c(=O)[nH]c2=O)s1", "Potency": "inconclusive: 18.4 µM [falling, single point]"}, {"smiles": "COc1ccccc1NC(=S)N(CCCN(C)C)Cc1cc2cc3c(cc2[nH]c1=O)OCO3", "Potency": "inconclusive: 20 µM [falling, partial curve]"}, {"smiles": "COc1cc(CNn2nnnc2N)cc(Br)c1OCC(=O)NC(C)(C)C", "activity change, negative = inhibition": "inconclusive: 1.36%"}, {"smiles": "CCOC(=O)c1c(NC(=O)CC2Sc3ccc(C(F)(F)F)cc3NC2=O)sc(C)c1C", "note": "(stereo unspecified)", "activity change, negative = inhibition": "inactive"}, {"smiles": "COc1ccc(C=C(c2nc3ccccc3s2)c2nc3ccccc3s2)cc1O", "Potency": "inconclusive: 10.3 µM [falling, partial curve]"}, {"smiles": "CCCNC(=O)Nc1ccc(C)cc1C", "activity change, negative = inhibition": "inconclusive: 6.18%"}, {"smiles": "COc1cc2[nH]c(=S)n(Cc3ccc(C)cc3)c(=O)c2cc1OC", "activity change, negative = inhibition": "inactive"}, {"smiles": "CC(C)Oc1ccc(C2CC(=O)N(C)C2=O)cc1", "note": "(stereo unspecified)", "activity change, negative = inhibition": "inconclusive: 6.15%"}, {"smiles": "N#C/C(=C/c1cc[nH]c1)C(N)=S", "Potency": "inconclusive: 2.82 µM [falling, partial curve, poor fit]"}, {"smiles": "COc1ccc(OCc2cc(C(=O)N3CCCCCC3)no2)c(Cl)c1", "activity change, negative = inhibition": "inactive"}, {"smiles": "CCCCOC(=O)CCn1c(=S)oc2ccccc21", "activity change, negative = inhibition": "inconclusive: -0.121%"}, {"smiles": "CN(C)C(=O)CCc1ccc2c3c([nH]c2c1)[C@]1(C)[C@@H](C(=O)N2CCOCC2)C[C@H](CC(=O)NC(C)(C)C)C(=O)N1CC3", "activity change, negative = inhibition": "inactive"}, {"smiles": "CCOC(=O)CCSc1nc(C)c2cc(C)c(C)cc2n1", "Potency": "inconclusive: 23.1 µM [falling, partial curve]"}, {"smiles": "O=C(NCCN1CCCCCC1)c1ccc(CS(=O)(=O)c2ccc(Br)cc2)o1", "activity change, negative = inhibition": "inconclusive: 2.94%"}, {"smiles": "O=C(O)c1ccccc1C(=O)NCCc1c(C(=O)O)[nH]c2ccc(Cl)cc12", "activity change, negative = inhibition": "inconclusive: 8.8%"}, {"smiles": "CC(=O)Nc1ccccc1-c1nc2cc(C#N)c(C#N)cc2[nH]c1=O", "activity change, negative = inhibition": "inconclusive: 5.26%"}, {"smiles": "COc1ccccc1NS(=O)(=O)c1ccc(O)c(C(=O)OCC(=O)c2ccc(Cl)cc2Cl)c1", "activity change, negative = inhibition": "inconclusive: -12.1%"}, {"smiles": "O=C(COC(=O)c1ccccc1O)Nc1ccc(OC(F)F)cc1", "activity change, negative = inhibition": "inconclusive: 17.1%"}, {"smiles": "COc1ccc(C(=O)/C=C/c2ccc(OC)c(CN3CCOCC3)c2)cc1", "Potency": "inconclusive: 29.1 µM [falling, single point]"}, {"smiles": "O=S1(=O)Nc2c(ccc3cccnc23)-c2ccccc21", "Potency": "inconclusive: 12.6 µM [falling, partial curve]"}, {"smiles": "COc1ccc(-c2[nH]ncc2/C=N\\NS(=O)(=O)c2ccccc2)cc1OC", "activity change, negative = inhibition": "inconclusive: -12.6%"}, {"smiles": "Oc1[nH]c2ccccc2c1N=NC(=S)NCC1CCCO1", "note": "(stereo unspecified)", "activity change, negative = inhibition": "inconclusive: -25.1%"}, {"smiles": "O=C1OC[C@@H]2CCCN2C(=O)[C@H](CC(=O)N(CCO)Cc2ccccc2)C/C=C\\C[C@H]1Cc1ccc(F)cc1", "activity change, negative = inhibition": "inactive"}, {"smiles": "CCOC(=O)c1ccc(NC(=O)C2CC2)cc1", "activity change, negative = inhibition": "inconclusive: 3%"}, {"smiles": "CSc1ccccc1NC(=O)COC(=O)c1ccc(O)cc1", "Potency": "inconclusive: 3.16 µM [falling, full curve]"}, {"smiles": "CCOC(=O)N1CCN(C(=O)c2cccc(S(=O)(=O)Nc3ccc(Br)cc3)c2)CC1", "activity change, negative = inhibition": "inconclusive: -6.77%"}, {"smiles": "Cc1cc(OCC(=O)NCCO)ccc1Cl", "activity change, negative = inhibition": "inconclusive: -4.12%"}, {"smiles": "C/C(=N\\Nc1ccc([N+](=O)[O-])cc1)c1cccc(N)c1", "activity change, negative = inhibition": "inconclusive: 9.65%"}, {"smiles": "Cc1ccccc1OCC(O)Cn1c(NCc2ccco2)nc2c1c(=O)n(C)c(=O)n2C", "note": "(stereo unspecified)", "activity change, negative = inhibition": "inconclusive: 0.0447%"}, {"smiles": "Cc1onc(-c2ccccc2)c1C(=O)Nc1nc(-c2ccccc2)cs1", "Potency": "inconclusive: 1.3 µM [rising, full curve, poor fit]"}, {"smiles": "Cc1ccc(CSc2ccc(-c3ccco3)nn2)cc1", "activity change, negative = inhibition": "inconclusive: 12.7%"}, {"smiles": "Cc1nc(NC(=O)C(C)Oc2cccc(Cl)c2)sc1C(=O)N(C)C", "note": "(stereo unspecified)", "activity change, negative = inhibition": "inconclusive: 0.236%"}, {"smiles": "Cc1cccc(-n2cnc(C(=O)NC3CCCCCC3)c2)n1", "activity change, negative = inhibition": "inconclusive: 217%"}, {"smiles": "N#C/C(C(=S)Nc1ccccc1)=C1/NN=C(N2CCOCC2)N1c1ccccc1", "Potency": "inconclusive: 22.4 µM [falling, single point]"}, {"smiles": "CN(Cc1ccco1)c1ncnc2ccc(-c3ccc4c(c3)OCCO4)cc12", "Potency": "inconclusive: 23.1 µM [falling, single point]"}, {"smiles": "CCN1C(=O)CC(n2c(C)nc3ccccc32)C1=O", "note": "(stereo unspecified)", "activity change, negative = inhibition": "inconclusive: 17.9%"}, {"smiles": "Cc1ccc(C(=O)NCC(=O)OCc2csc(-c3ccccc3)n2)cc1", "activity change, negative = inhibition": "inconclusive: -2.35%"}, {"smiles": "Cc1cc(C)cc(OCC(=O)N(Cc2ccco2)c2c(N)n(Cc3ccccc3)c(=O)[nH]c2=O)c1", "activity change, negative = inhibition": "inactive"}, {"smiles": "CCc1cc(CC)c(/C=N/NC(N)=O)c(CC)c1/C=N/NC(N)=O", "activity change, negative = inhibition": "inconclusive: 4.46%"}, {"smiles": "Clc1cccc(CN2C3=NCCCN3c3ccccc32)c1", "activity change, negative = inhibition": "inactive"}, {"smiles": "Cc1ccccc1NC(=O)N1CCCC(c2nc(-c3ccc(C(C)C)cc3)no2)C1", "note": "(stereo unspecified)", "Potency": "inconclusive: 3.98 µM [falling, single point]"}, {"smiles": "Cc1cccc(-[n+]2c(-c3cccc(Br)c3)[nH]c3nc4ccccc4nc32)c1", "activity change, negative = inhibition": "inconclusive: 2.42%"}, {"smiles": "O=C(CN1C(=O)C(=O)N(CCC2=CCCCC2)C1=O)c1c[nH]c2ccccc12", "activity change, negative = inhibition": "inconclusive: 1.51%"}, {"smiles": "O=C(Nc1ccc(N2CCN(C(=O)c3cccs3)CC2)cc1)c1ccccc1Cl", "Potency": "inconclusive: 8.91 µM [falling, partial curve]"}]}]}
